The source of these data is publication doi:10.1101/2024.05.06.592854.

Protein sequences, listed by entry. Tags and fused reporters are not part of them.
UniProt Q9UQE7: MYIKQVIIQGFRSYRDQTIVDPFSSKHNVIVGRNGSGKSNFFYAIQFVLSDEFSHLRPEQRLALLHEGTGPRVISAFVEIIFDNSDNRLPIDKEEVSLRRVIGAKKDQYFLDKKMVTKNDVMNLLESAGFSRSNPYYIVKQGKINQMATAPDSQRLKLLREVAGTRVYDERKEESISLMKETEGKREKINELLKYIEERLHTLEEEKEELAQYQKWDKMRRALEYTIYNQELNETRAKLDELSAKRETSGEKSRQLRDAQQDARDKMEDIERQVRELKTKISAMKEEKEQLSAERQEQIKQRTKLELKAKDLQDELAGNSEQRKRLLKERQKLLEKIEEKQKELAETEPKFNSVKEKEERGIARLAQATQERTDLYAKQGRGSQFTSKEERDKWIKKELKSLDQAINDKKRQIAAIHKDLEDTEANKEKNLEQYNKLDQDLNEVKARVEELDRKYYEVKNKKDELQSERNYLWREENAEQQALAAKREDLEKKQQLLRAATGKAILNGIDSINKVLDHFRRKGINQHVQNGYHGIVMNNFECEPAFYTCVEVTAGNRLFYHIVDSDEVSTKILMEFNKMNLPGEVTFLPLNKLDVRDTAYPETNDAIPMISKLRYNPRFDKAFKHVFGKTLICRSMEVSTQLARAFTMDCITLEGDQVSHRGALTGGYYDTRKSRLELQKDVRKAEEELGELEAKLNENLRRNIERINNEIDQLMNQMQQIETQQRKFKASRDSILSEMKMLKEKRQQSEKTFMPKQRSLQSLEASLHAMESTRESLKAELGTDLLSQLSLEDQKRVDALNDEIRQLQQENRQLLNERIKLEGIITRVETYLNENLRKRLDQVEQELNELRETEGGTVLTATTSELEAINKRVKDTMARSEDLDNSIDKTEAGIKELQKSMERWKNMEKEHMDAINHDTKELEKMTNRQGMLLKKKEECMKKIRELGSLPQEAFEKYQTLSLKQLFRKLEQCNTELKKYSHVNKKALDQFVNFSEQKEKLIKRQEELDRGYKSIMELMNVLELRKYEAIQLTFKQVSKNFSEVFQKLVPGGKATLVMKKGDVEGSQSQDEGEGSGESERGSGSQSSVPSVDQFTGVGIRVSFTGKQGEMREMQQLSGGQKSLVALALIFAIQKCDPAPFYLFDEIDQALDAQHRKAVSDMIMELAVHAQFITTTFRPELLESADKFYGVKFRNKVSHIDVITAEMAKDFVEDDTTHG
UniProt Q4G0F5: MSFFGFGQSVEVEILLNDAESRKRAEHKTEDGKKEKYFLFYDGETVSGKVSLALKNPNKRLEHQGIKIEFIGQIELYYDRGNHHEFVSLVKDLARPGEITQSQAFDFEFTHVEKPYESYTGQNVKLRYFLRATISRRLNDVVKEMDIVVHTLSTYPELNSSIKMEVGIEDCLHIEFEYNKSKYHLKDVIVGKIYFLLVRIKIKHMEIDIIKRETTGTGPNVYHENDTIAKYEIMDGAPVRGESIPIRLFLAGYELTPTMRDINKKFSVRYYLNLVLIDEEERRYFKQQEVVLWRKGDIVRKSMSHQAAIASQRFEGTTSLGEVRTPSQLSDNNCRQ

Where two headings read alike, the source gives them in different places. These are yes or no findings as the source states them, for the method shown. In cells and extracts the contact can be indirect. Some binding calls cover weakened binding; strength is not graded here. Where a sequence is shown, tags or fusion partners need not be part of it.

Common to all, as to experiment: co-IP
For assay [1], the target named is T1, 3xFLAG-NEK1 (NIMA-related kinase 1), expressed in human motor neurons (hsyn-3XFLAG-NEK1 lentivirus) (human) (UniProt Q96PY6).
T1 sequence: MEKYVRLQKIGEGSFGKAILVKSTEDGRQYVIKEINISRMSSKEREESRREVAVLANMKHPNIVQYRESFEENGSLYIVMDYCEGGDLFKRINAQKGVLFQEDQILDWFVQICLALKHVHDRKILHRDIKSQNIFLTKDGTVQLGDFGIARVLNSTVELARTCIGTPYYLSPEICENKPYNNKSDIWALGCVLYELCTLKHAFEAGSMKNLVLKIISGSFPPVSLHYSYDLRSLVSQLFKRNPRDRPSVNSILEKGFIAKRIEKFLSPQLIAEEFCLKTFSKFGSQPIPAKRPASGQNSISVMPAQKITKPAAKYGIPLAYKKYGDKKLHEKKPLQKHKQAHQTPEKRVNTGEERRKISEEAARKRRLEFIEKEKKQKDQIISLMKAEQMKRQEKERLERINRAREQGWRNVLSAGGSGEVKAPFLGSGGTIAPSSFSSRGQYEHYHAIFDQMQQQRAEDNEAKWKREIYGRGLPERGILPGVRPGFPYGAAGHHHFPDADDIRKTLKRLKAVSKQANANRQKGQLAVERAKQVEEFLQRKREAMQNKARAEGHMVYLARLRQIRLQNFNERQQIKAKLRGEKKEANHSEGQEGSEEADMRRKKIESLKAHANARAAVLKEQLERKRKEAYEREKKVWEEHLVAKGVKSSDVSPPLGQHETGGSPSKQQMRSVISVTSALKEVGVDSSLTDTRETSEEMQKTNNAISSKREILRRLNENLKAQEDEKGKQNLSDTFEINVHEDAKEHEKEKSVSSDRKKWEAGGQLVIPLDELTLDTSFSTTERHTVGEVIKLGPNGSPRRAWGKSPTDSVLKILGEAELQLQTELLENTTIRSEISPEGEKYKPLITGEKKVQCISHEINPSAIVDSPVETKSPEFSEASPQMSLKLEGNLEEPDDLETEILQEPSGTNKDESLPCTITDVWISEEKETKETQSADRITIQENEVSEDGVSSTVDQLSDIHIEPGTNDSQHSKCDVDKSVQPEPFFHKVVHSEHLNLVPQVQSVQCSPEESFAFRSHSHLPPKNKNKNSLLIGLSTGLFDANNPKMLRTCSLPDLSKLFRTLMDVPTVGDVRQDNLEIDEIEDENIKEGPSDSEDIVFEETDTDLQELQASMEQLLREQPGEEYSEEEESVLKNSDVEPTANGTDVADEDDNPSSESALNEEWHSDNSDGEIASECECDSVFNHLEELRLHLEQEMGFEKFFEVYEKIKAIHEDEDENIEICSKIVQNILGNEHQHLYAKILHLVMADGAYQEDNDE

Assay [2] deals with T2, 3xFLAG-NEK1 (NIMA-related kinase 1), expressed in HEK cells (human) (UniProt Q96PY6).
T2 sequence: T1 sequence

In assay [3] the target is T2, 3xFLAG-NEK1 (NIMA-related kinase 1), expressed in HEK cells (human). This is another data set of the same source.
The target of assay [4] is T1, 3xFLAG-NEK1 (NIMA-related kinase 1), expressed in human motor neurons (hsyn-3XFLAG-NEK1 lentivirus) (human). The source holds these as a separate data set.

In the case of “SMC3 (cohesin complex subunit), motor neurons (from UniProt Q9UQE7 1-1217)”, the binding entry in assay [1] is given as “binds”. Consider “VPS26B (retromer subunit), HEK cells (from UniProt Q4G0F5 1-336)”, for which the binding entry in assay [2] was “binds”.

On to “SMC3 (cohesin complex subunit), HEK cells (from UniProt Q9UQE7 1-1217)”, for which the binding entry in assay [2] is “binds”. As to “VPS26B (retromer subunit), motor neurons (from UniProt Q4G0F5 1-336)”, in assay [1], the binding result is “binds”.

B1: WASHC4 (WASH complex component), HEK cells (protein, UniProt Q2M389 1-1173)
chain: MAVETLSPDWEFDRVDDGSQKIHAEVQLKNYGKFLEEYTSQLRRIEDALDDSIGDVWDFNLDPIALKLLPYEQSSLLELIKTENKVLNKVITVYAALCCEIKKLKYEAETKFYNGLLFYGEGATDASMVEGDCQIQMGRFISFLQELSCFVTRCYEVVMNVVHQLAALYISNKIAPKIIETTGVHFQTMYEHLGELLTVLLTLDEIIDNHITLKDHWTMYKRLLKSVHHNPSKFGIQEEKLKPFEKFLLKLEGQLLDGMIFQACIEQQFDSLNGGVSVSKNSTFAEEFAHSIRSIFANVEAKLGEPSEIDQRDKYVGICGLFVLHFQIFRTIDKKFYKSLLDICKKVPAITLTANIIWFPDNFLIQKIPAAAKLLDRKSLQAIKIHRDTFLQQKAQSLTKDVQSYYVFVSSWMMKMESILSKEQRMDKFAEDLTNRCNVFIQGFLYAYSISTIIKTTMNLYMSMQKPMTKTSVKALCRLVELLKAIEHMFYRRSMVVADSVSHITQHLQHQALHSISVAKKRVISDKKYSEQRLDVLSALVLAENTLNGPSTKQRRLIVSLALSVGTQMKTFKDEELFPLQVVMKKLDLISELRERVQTQCDCCFLYWHRAVFPIYLDDVYENAVDAARLHYMFSALRDCVPAMMHARHLESYEILLDCYDKEIMEILNEHLLDKLCKEIEKDLRLSVHTHLKLDDRNPFKVGMKDLALFFSLNPIRFFNRFIDIRAYVTHYLDKTFYNLTTVALHDWATYSEMRNLATQRYGLVMTEAHLPSQTLEQGLDVLEIMRNIHIFVSRYLYNLNNQIFIERTSNNKHLNTINIRHIANSIRTHGTGIMNTTVNFTYQFLKKKFYIFSQFMYDEHIKSRLIKDIRFFREIKDQNDHKYPFDRAEKFNRGIRKLGVTPEGQSYLDQFRQLISQIGNAMGYVRMIRSGGLHCSSNAIRFVPDLEDIVNFEELVKEEGLAEETLKAARHLDSVLSDHTRNSAEGTEYFKMLVDVFAPEFRRPKNIHLRNFYIIVPPLTLNFVEHSISCKEKLNKKNKIGAAFTDDGFAMGVAYILKLLDQYREFDSLHWFQSVREKYLKEIRAVAKQQNVQSASQDEKLLQTMNLTQKRLDVYLQEFELLYFSLSSARIFFRADKTAAEENQEKKEKEEETKTSNGDLSDSTVSADPVVK
Turning to B1, in assay [3], the binding result is listed as “no binding”.

B2: WASHC4 (WASH complex component), motor neurons (protein, UniProt Q2M389 1-1173)
chain: B1 chain
For the molecule B2, the binding entry in assay [4] is on record as “no binding”.
